# PubChem BioAssay AID504774 | Drosophila RNAi Screening Center, 2011
# Screen: 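Genes required for cells to withstand methyl methanesulphonate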 (primary screen)
# Cell system: Drosophila Kc167 cells
# Reagents: long dsRNA against Drosophila genes, about 0.25 µg dsRNA per well
# Timing: about 6 days: 3 days knock-down, then 3 days with or without MMS
# Conditions: methyl methanesulphonate 0.004% (w/v) for 3 days after knock-down
# Measurement: 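Viability in wells given MMS, read as ATP luminescence, normalised by quantiles plate by plate and averaged across replicates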
# Direction: mean viability with MMS and viability with MMS: higher = more surviving cells after MMS
# The screen tested about 23,000 reagents; this is a random part of those with a known target gene and a result. 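Values are quantile-normalised luminescence on an arbitrary scale; higher means more cells surviving MMS.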 Names joined by + are all predicted targets of the reagent. Not all columns of the deposit are shown. Reagent sequences are not shown.
predicted target,amplicon,mean viability with MMS,"viability with MMS, replicate 1"
l(3)05822,DRSC16202,3.70e6,4.14e6
Jon99Ci,DRSC16860,3.50e6,4.02e6
CG42319,DRSC06645,3.56e6,4.13e6
CG42319,DRSC06646,3.64e6,4.37e6
CG42319,DRSC22426,3.61e6,4.10e6
Nprl2,DRSC20153,3.73e6,4.21e6
CG14538 (retired record),DRSC02396,3.34e6,3.99e6
Coq8,DRSC19900,3.42e6,3.92e6
DIP-theta,DRSC00885,3.59e6,4.08e6
DIP-theta,DRSC02340,3.68e6,4.18e6
DIP-theta,DRSC02341,3.79e6,4.13e6
CG15403,DRSC00417,3.68e6,4.11e6
Smyd4-2,DRSC10126,3.30e6,3.82e6
edl,DRSC06516,3.53e6,4.02e6
Sems,DRSC11626,3.47e6,3.90e6
Atg9,DRSC06848,3.60e6,4.19e6
l(2)k05911,DRSC02523,1.98e6,4.17e6
CG13047,DRSC09928,3.64e6,4.01e6
Spt6,DRSC18836,2.71e6,3.04e6
CG31231,DRSC13308,3.45e6,3.88e6
CG5687,DRSC08568,3.57e6,4.00e6
Ir31a,DRSC22358,3.45e6,3.93e6
CG11349,DRSC08179,3.68e6,4.27e6
GstO1,DRSC10688,3.56e6,3.95e6
S-Lap5,DRSC06732,3.51e6,4.05e6
stg,DRSC17071,3.17e6,3.75e6
CG15337,DRSC18020,3.62e6,4.15e6
CG15337,DRSC22778,3.57e6,4.01e6
CG6553,DRSC07002,3.29e6,3.91e6
Spec2 (retired record),DRSC12258,3.65e6,4.18e6
Spec2 (retired record),DRSC22886,3.41e6,3.92e6
CG14507,DRSC14859,3.46e6,3.90e6
CG12498,DRSC18635,3.44e6,3.97e6
CG11327,DRSC02146,3.55e6,4.05e6
CG5214,DRSC15739,3.82e6,4.09e6
CG5214,DRSC22842,3.55e6,4.00e6
E(spl)mbeta-HLH,DRSC16697,3.71e6,4.11e6

Limited to “mean viability with MMS”, for 6 of the entries above:
CG15337 [DRSC22778] = 3.57e6
CG6553 [DRSC07002] = 3.29e6
Spec2 (retired record) [DRSC12258] = 3.65e6
Spec2 (retired record) [DRSC22886] = 3.41e6
CG14507 [DRSC14859] = 3.46e6
CG12498 [DRSC18635] = 3.44e6

Continued:
predicted target,amplicon,mean viability with MMS,"viability with MMS, replicate 1"
CR42532,DRSC06713,3.46e6,3.90e6
CG30466,DRSC05556,3.55e6,3.95e6
CG4770,DRSC15639,3.55e6,4.16e6
qsm,DRSC05896,3.55e6,3.97e6
qsm,DRSC06393,3.51e6,3.86e6
Max,DRSC11218,3.49e6,4.03e6
CG6178,DRSC15984,3.52e6,4.01e6
CG14316,DRSC14795,3.63e6,4.20e6
CG13426,DRSC06388,3.42e6,4.00e6
CG18294 + 825-Oak + CG32214 + 2 more,DRSC22210,3.63e6,4.05e6
CG3199,DRSC15467,3.41e6,3.85e6
DMAP1,DRSC06044,3.03e6,3.62e6
CG6912,DRSC16132,3.67e6,4.53e6
CG17564,DRSC02626,3.59e6,3.92e6
CG15048 (retired record),DRSC19624,3.22e6,3.56e6
CG30054,DRSC05354,3.53e6,3.94e6
escl,DRSC02828,3.94e6,4.33e6
eIF2gamma,DRSC13081,3.27e6,3.75e6
eIF2gamma,DRSC16873,3.51e6,4.00e6
CG3348,DRSC15480,3.49e6,3.91e6
CG7120,DRSC10773,3.48e6,3.89e6
Cnx14D,DRSC20214,3.51e6,3.94e6
Dnz1,DRSC03317,3.50e6,4.09e6
hdly,DRSC15849,3.48e6,3.94e6
Muc4B,DRSC18062,3.51e6,3.98e6
Muc4B,DRSC18063,3.74e6,4.41e6
CG10600,DRSC02074,3.45e6,4.04e6
Nlp,DRSC16759,3.42e6,3.85e6
Ifrd1,DRSC00415,3.35e6,4.06e6
Ifrd1,DRSC00566,3.31e6,4.08e6
CG15888,DRSC15125,3.56e6,4.01e6
